{"source": "PubChem BioAssay AID720505 (Drosophila RNAi Screening Center, 2013)", "purpose": "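Knock-downs that reduce calcium influx once internal stores are emptied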 (primary screen)", "cell system": "Drosophila S2R+ cells", "reagent": "long dsRNA against Drosophila genes", "challenge": "thapsigargin (2 µM) in calcium-free buffer to empty internal stores, then 2 mM calcium added back", "measured": "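Stores emptied by 2 µM thapsigargin without calcium, then 2 mM calcium re-added; fluo-4 fluorescence followed by FLIPR in 384-well plates, per-well averaged endpoint, raw; two screen passes, some wells retested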", "reading the numbers": "calcium signal and retest calcium signal: higher = more calcium entry after store depletion", "rule for the call": "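Knock-downs counted as hits when calcium entry dropped relative to STIM1 positive and Rho1 negative controls present on each plate; roughly 1500 genes called, with reductions of differing size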", "meaning of the calls": "active = called as lowering calcium entry; inactive = not called", "note": "The deposit covers about 20,000 reagents; below is a random part of those that have a named target and a result. Over the whole deposit, about 2,100 (10%) got an active call. 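Raw plate signals without normalisation; calls rest on control-based scores that were not deposited; replicate 2 separates called from uncalled poorly.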 Unmarked entries are inactive. The numbers tell different reagents against one gene apart. A plus sign joins genes that one reagent is predicted to hit. Not given: the amount of reagent, the time to read-out."}
{"target gene": "UbcE2M", "reagent no.": 1, "calcium signal, replicate 1": 83.8, "calcium signal, replicate 2": 84.4}
{"target gene": "CG3557", "reagent no.": 1, "calcium signal, replicate 1": 72.4, "calcium signal, replicate 2": 127}
{"target gene": "Cpes", "reagent no.": 1, "calcium signal, replicate 1": 79.9, "calcium signal, replicate 2": 103}
{"target gene": "CG5592", "reagent no.": 1, "calcium signal, replicate 1": 109, "calcium signal, replicate 2": 48.2}
{"target gene": "CG17328", "reagent no.": 1, "calcium signal, replicate 1": 110, "calcium signal, replicate 2": 87, "retest calcium signal, replicate 1": 164, "retest calcium signal, replicate 2": 162}
{"target gene": "CG17328", "reagent no.": 2, "calcium signal, replicate 1": 86.5, "calcium signal, replicate 2": 174}
{"target gene": "CG7453", "reagent no.": 1, "calcium signal, replicate 1": 159, "calcium signal, replicate 2": 90.8}
{"target gene": "CG33981 + fab1", "reagent no.": 1, "calcium signal, replicate 1": 155, "calcium signal, replicate 2": 113}
{"target gene": "obst-I", "reagent no.": 1, "calcium signal, replicate 1": "74.2 (active)", "calcium signal, replicate 2": 159}
{"target gene": "CG11368", "reagent no.": 1, "calcium signal, replicate 1": 292, "calcium signal, replicate 2": 112}
{"target gene": "CG5762", "reagent no.": 1, "calcium signal, replicate 1": 204, "calcium signal, replicate 2": 225}
{"target gene": "CG3626", "reagent no.": 1, "calcium signal, replicate 1": 279, "calcium signal, replicate 2": 148}

Part of the list above, reformatted.
target gene	reagent no.	calcium signal, replicate 1	calcium signal, replicate 2	retest calcium signal, replicate 1	retest calcium signal, replicate 2
CG3557	1	72.4	127		
Cpes	1	79.9	103		
